PubChem BioAssay AID720505 – Drosophila RNAi Screening Center | 2013

Aim: 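Fly regulators or components of the CRAC channel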 (primary screen)
Cells: Drosophila S2R+ cells
Reagent: long dsRNA against Drosophila genes
Treatment: thapsigargin (2 µM) in calcium-free buffer to empty internal stores, then 2 mM calcium added back
Measurement: 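Fluo-4 signal in 384-well plates read on a FLIPR after thapsigargin (2 µM, calcium-free) store depletion and 2 mM calcium add-back; unnormalised mean endpoint per well; screen run twice, selected wells retested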
Reading the numbers: calcium signal and retest calcium signal: higher = more calcium entry after store depletion
Active means: 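Knock-downs counted as hits when calcium entry dropped relative to STIM1 positive and Rho1 negative controls present on each plate; roughly 1500 genes called, with reductions of differing size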
Calls: active = called as lowering calcium entry; inactive = not called
In all, the deposit lists about 20,000 reagents; shown is an unselected part of those that have a named target and a result. In the full data, about 2,100 (10%) were called active. 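Raw plate signals without normalisation; calls rest on control-based scores that were not deposited; replicate 2 separates called from uncalled poorly.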 Unmarked entries are inactive. The numbers tell different reagents against one gene apart. A plus sign joins genes that one reagent is predicted to hit. No sequences are given here. Not stated in the record: the amount of reagent, the time to read-out.

ix (GeneID 45881) → calcium signal, replicate 1: 109; calcium signal, replicate 2: 136
DptB (GeneID 37184) → calcium signal, replicate 1: 128; calcium signal, replicate 2: 137
crn (GeneID 31208) #1 → calcium signal, replicate 1: 78.7; calcium signal, replicate 2: 91.7
crn (GeneID 31208) #2 → calcium signal, replicate 1: 98.4; calcium signal, replicate 2: 148
crn (GeneID 31208) #3 → calcium signal, replicate 1: 68.6 (active); calcium signal, replicate 2: 101
lawc (GeneID 318164) #1 → calcium signal, replicate 1: 150; calcium signal, replicate 2: 96.6
lawc (GeneID 318164) #2 → calcium signal, replicate 1: 65; calcium signal, replicate 2: 123
BNIP3 (GeneID 40278) → calcium signal, replicate 1: 114; calcium signal, replicate 2: 167
CG11170 (GeneID 37533) → calcium signal, replicate 1: 105; calcium signal, replicate 2: 82.8
NiPp1 (GeneID 44748) → calcium signal, replicate 1: 97.1; calcium signal, replicate 2: 80
Obp57a (GeneID 246670) → calcium signal, replicate 1: 93; calcium signal, replicate 2: 216
CNBP (GeneID 37646) #1 → calcium signal, replicate 1: 142; calcium signal, replicate 2: 194
CNBP (GeneID 37646) #2 → calcium signal, replicate 1: 183; calcium signal, replicate 2: 134; retest calcium signal, replicate 1: 112; retest calcium signal, replicate 2: 131
CNBP (GeneID 37646) #3 → calcium signal, replicate 1: 138; calcium signal, replicate 2: 99.3
ras (GeneID 43873) → calcium signal, replicate 1: 113; calcium signal, replicate 2: 116

Reagents listed so far with an active call, once more:
crn (GeneID 31208) #3 → calcium signal, replicate 1: 68.6 (active); calcium signal, replicate 2: 101

The list goes on.
CG7509 (GeneID 38579) → calcium signal, replicate 1: 69.6 (active); calcium signal, replicate 2: 119
CG12911 (GeneID 36081) → calcium signal, replicate 1: 139; calcium signal, replicate 2: 101
CG12662 (GeneID 31825) → calcium signal, replicate 1: 293; calcium signal, replicate 2: 78.3
CG31687 + Cdc23 → calcium signal, replicate 1: 124; calcium signal, replicate 2: 150
CG3009 (GeneID 31402) → calcium signal, replicate 1: 96.6; calcium signal, replicate 2: 81.2
axo (GeneID 43923) #1 → calcium signal, replicate 1: 98; calcium signal, replicate 2: 86.8
axo (GeneID 43923) #2 → calcium signal, replicate 1: 87.6; calcium signal, replicate 2: 70.6
axo (GeneID 43923) #3 → calcium signal, replicate 1: 83.7; calcium signal, replicate 2: 74.2
axo (GeneID 43923) #4 → calcium signal, replicate 1: 72.4; calcium signal, replicate 2: 112
axo (GeneID 43923) #5 → calcium signal, replicate 1: 52.1 (active); calcium signal, replicate 2: 83.1
IP3K2 (GeneID 32285) #1 → calcium signal, replicate 1: 114; calcium signal, replicate 2: 88.7; retest calcium signal, replicate 1: 8885; retest calcium signal, replicate 2: 79.8
IP3K2 (GeneID 32285) #2 → calcium signal, replicate 1: 97.5; calcium signal, replicate 2: 105
IP3K2 (GeneID 32285) #3 → calcium signal, replicate 1: 108; calcium signal, replicate 2: 183
Thor (GeneID 33569) → calcium signal, replicate 1: 127; calcium signal, replicate 2: 280
Zdhhc8 (GeneID 31887) #1 → calcium signal, replicate 1: 91.3; calcium signal, replicate 2: 95.4
Zdhhc8 (GeneID 31887) #2 → calcium signal, replicate 1: 54.4 (active); calcium signal, replicate 2: 91.6
CG17760 (GeneID 36385) → calcium signal, replicate 1: 125; calcium signal, replicate 2: 213
Tcs3 (GeneID 39811) → calcium signal, replicate 1: 87.1; calcium signal, replicate 2: 111
CG17327 (GeneID 41598) → calcium signal, replicate 1: 77.2; calcium signal, replicate 2: 90.5
CG43308 (GeneID 12798125) → calcium signal, replicate 1: 63.7; calcium signal, replicate 2: 94.1
